# Reference: ChEMBL document CHEMBL4316593 (Eur J Med Chem, 2019)
# The source gives many values for each of these; only a part stands here.
# Legend:
# Format in all cases: cell-based
# Settings in all cases: U-87MG ATCC
# [1] = Inhibition of RTK/PI3K/AKT/mTOR signaling in human U87 cells assessed as down regulation of C6orf222 gene expression at cytotoxic IC50 measured after 48 hrs relative to control
# [2] = Inhibition of RTK/PI3K/AKT/mTOR signaling in human U87 cells assessed as down regulation of EXO1 gene expression at cytotoxic IC50 measured after 48 hrs relative to control
# [3] = Inhibition of RTK/PI3K/AKT/mTOR signaling in human U87 cells assessed as down regulation of ZNF107 gene expression at cytotoxic IC50 measured after 48 hrs relative to control
# [4] = Inhibition of RTK/PI3K/AKT/mTOR signaling in human U87 cells assessed as down regulation of NUDT1 gene expression at cytotoxic IC50 measured after 48 hrs relative to control
# [5] = Inhibition of RTK/PI3K/AKT/mTOR signaling in human U87 cells assessed as down regulation of H3F3B gene expression at cytotoxic IC50 measured after 48 hrs relative to control
# [6] = Inhibition of RTK/PI3K/AKT/mTOR signaling in human U87 cells assessed as down regulation of UTP6 gene expression at cytotoxic IC50 measured after 48 hrs relative to control
# [7] = Inhibition of RTK/PI3K/AKT/mTOR signaling in human U87 cells assessed as down regulation of DGCR6L gene expression at cytotoxic IC50 measured after 48 hrs relative to control
# [8] = Inhibition of RTK/PI3K/AKT/mTOR signaling in human U87 cells assessed as down regulation of ANAPC10 gene expression at cytotoxic IC50 measured after 48 hrs relative to control
# [9] = Inhibition of RTK/PI3K/AKT/mTOR signaling in human U87 cells assessed as down regulation of AURKB gene expression at cytotoxic IC50 measured after 48 hrs relative to control
# [10] = Inhibition of RTK/PI3K/AKT/mTOR signaling in human U87 cells assessed as down regulation of PLAGL1 gene expression at cytotoxic IC50 measured after 48 hrs relative to control
# [11] = Inhibition of RTK/PI3K/AKT/mTOR signaling in human U87 cells assessed as down regulation of MFAP1 gene expression at cytotoxic IC50 measured after 48 hrs relative to control
# [12] = Inhibition of RTK/PI3K/AKT/mTOR signaling in human U87 cells assessed as down regulation of HIF1AN gene expression at cytotoxic IC50 measured after 48 hrs relative to control
# [13] = Inhibition of RTK/PI3K/AKT/mTOR signaling in human U87 cells assessed as down regulation of CHEK1 gene expression at cytotoxic IC50 measured after 48 hrs relative to control
# [14] = Inhibition of RTK/PI3K/AKT/mTOR signaling in human U87 cells assessed as down regulation of DHDDS gene expression at cytotoxic IC50 measured after 48 hrs relative to control
# [15] = Inhibition of RTK/PI3K/AKT/mTOR signaling in human U87 cells assessed as down regulation of FBXO22 gene expression at cytotoxic IC50 measured after 48 hrs relative to control
# [16] = Inhibition of RTK/PI3K/AKT/mTOR signaling in human U87 cells assessed as down regulation of KLHL12 gene expression at cytotoxic IC50 measured after 48 hrs relative to control
# [17] = Inhibition of RTK/PI3K/AKT/mTOR signaling in human U87 cells assessed as down regulation of UBR4 gene expression at cytotoxic IC50 measured after 48 hrs relative to control
# [18] = Inhibition of RTK/PI3K/AKT/mTOR signaling in human U87 cells assessed as up regulation of KLK7 gene expression at cytotoxic IC50 measured after 48 hrs relative to control
# [19] = Inhibition of RTK/PI3K/AKT/mTOR signaling in human U87 cells assessed as up regulation of early B-cell factor 4 gene expression at cytotoxic IC50 measured after 48 hrs relative to control
# [20] = Inhibition of RTK/PI3K/AKT/mTOR signaling in human U87 cells assessed as up regulation of muscleblind like splicing regulator 2 gene expression at cytotoxic IC50 measured after 48 hrs relative to control
# [21] = Inhibition of RTK/PI3K/AKT/mTOR signaling in human U87 cells assessed as up regulation of histone deacetylase 4 gene expression at cytotoxic IC50 measured after 48 hrs relative to control
# [22] = Inhibition of RTK/PI3K/AKT/mTOR signaling in human U87 cells assessed as up regulation of cytochrome b561 gene expression at cytotoxic IC50 measured after 48 hrs relative to control
# [23] = Inhibition of RTK/PI3K/AKT/mTOR signaling in human U87 cells assessed as up regulation of caldesmon 1 gene expression at cytotoxic IC50 measured after 48 hrs relative to control
# [24] = Inhibition of RTK/PI3K/AKT/mTOR signaling in human U87 cells assessed as up regulation of discoidin domain receptor tyrosine kinase 1 gene expression at cytotoxic IC50 measured after 48 hrs relative to control
# [25] = Inhibition of RTK/PI3K/AKT/mTOR signaling in human U87 cells assessed as up regulation of RuvB like AAA ATPase 1 gene expression at cytotoxic IC50 measured after 48 hrs relative to control
# [26] = Inhibition of RTK/PI3K/AKT/mTOR signaling in human U87 cells assessed as up regulation of zinc finger MYND-type containing 8 gene expression at cytotoxic IC50 measured after 48 hrs relative to control
# [27] = Inhibition of RTK/PI3K/AKT/mTOR signaling in human U87 cells assessed as up regulation of KIAA0895 like gene expression at cytotoxic IC50 measured after 48 hrs relative to control
# [28] = Inhibition of RTK/PI3K/AKT/mTOR signaling in human U87 cells assessed as up regulation of SRY-box 9 gene expression at cytotoxic IC50 measured after 48 hrs relative to control
# [29] = Inhibition of RTK/PI3K/AKT/mTOR signaling in human U87 cells assessed as up regulation of pyruvate dehydrogenase phosphatase catalytic subunit 1 gene expression at cytotoxic IC50 measured after 48 hrs relative to control
# [30] = Inhibition of RTK/PI3K/AKT/mTOR signaling in human U87 cells assessed as up regulation of Cbp/p300 interacting transactivator with Glu/Asp rich carboxy-terminal domain 2 gene expression at cytotoxic IC50 measured after 48 hrs relative to control
# [31] = Inhibition of RTK/PI3K/AKT/mTOR signaling in human U87 cells assessed as up regulation of PKD1 gene expression at cytotoxic IC50 measured after 48 hrs relative to control
# [32] = Inhibition of RTK/PI3K/AKT/mTOR signaling in human U87 cells assessed as up regulation of TMED10 gene expression at cytotoxic IC50 measured after 48 hrs relative to control
structure (smiles),measurement,setting,value
CC(=O)C(=NNc1ccccc1C#N)C(C)=O,log2FC,[1],-7.57
same,log2FC,[2],-2.06
same,log2FC,[3],-1.74
same,log2FC,[4],-1.39
same,log2FC,[5],-1.1
same,log2FC,[6],-1.04
same,log2FC,[7],-1.03
same,log2FC,[8],-1
same,log2FC,[9],-0.884
same,log2FC,[10],-0.844
same,log2FC,[11],-0.824
same,log2FC,[12],-0.753
same,log2FC,[13],-0.679
same,log2FC,[14],-0.613
same,log2FC,[15],-0.6
same,log2FC,[16],-0.483
same,log2FC,[17],-0.476
same,log2FC,[18],2.76
same,log2FC,[19],1.44
same,log2FC,[20],1.4
same,log2FC,[21],1.39
same,log2FC,[22],1.35
same,log2FC,[23],1.3
same,log2FC,[24],1.16
same,log2FC,[25],1.08
same,log2FC,[26],1.07
same,log2FC,[27],1.05
same,log2FC,[28],0.944
same,log2FC,[29],0.795
same,log2FC,[30],0.654
same,log2FC,[31],0.587
same,log2FC,[32],0.582
